No constants are given. Whether binding was seen depends on the method and setting. In cells and extracts the contact can be indirect. For part of these data: Tags and fused reporters may be left off the sequences shown.
Legend:
[1] = target: T1, Myc-YTHDF2-Δ101-168 (human) (UniProt Q9Y5A9); test: co-IP; IP with α-Myc antibody from extracts of HEK293T cells transfected with Myc-YTHDF2 (WT or variant), western blot; DMSO or MG132 12 h (Fig. 3b), two days after transfection (Fig. 4a)
T1 sequence: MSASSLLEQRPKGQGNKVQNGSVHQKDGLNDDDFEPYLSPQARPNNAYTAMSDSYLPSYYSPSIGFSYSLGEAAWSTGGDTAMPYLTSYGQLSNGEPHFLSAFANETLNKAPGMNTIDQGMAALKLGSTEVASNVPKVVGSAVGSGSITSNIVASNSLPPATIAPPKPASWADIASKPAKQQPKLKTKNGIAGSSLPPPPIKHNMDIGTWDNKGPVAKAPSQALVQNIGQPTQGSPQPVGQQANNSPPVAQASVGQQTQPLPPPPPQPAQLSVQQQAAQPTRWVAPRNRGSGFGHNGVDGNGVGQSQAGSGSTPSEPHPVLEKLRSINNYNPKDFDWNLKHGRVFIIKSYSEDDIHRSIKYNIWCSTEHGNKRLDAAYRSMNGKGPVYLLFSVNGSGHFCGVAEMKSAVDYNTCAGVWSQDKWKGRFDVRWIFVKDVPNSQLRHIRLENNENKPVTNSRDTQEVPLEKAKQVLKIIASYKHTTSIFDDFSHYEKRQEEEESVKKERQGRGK

Protein sequences, listed by entry. Tags and fused reporters are not part of them.
UniProt Q14203: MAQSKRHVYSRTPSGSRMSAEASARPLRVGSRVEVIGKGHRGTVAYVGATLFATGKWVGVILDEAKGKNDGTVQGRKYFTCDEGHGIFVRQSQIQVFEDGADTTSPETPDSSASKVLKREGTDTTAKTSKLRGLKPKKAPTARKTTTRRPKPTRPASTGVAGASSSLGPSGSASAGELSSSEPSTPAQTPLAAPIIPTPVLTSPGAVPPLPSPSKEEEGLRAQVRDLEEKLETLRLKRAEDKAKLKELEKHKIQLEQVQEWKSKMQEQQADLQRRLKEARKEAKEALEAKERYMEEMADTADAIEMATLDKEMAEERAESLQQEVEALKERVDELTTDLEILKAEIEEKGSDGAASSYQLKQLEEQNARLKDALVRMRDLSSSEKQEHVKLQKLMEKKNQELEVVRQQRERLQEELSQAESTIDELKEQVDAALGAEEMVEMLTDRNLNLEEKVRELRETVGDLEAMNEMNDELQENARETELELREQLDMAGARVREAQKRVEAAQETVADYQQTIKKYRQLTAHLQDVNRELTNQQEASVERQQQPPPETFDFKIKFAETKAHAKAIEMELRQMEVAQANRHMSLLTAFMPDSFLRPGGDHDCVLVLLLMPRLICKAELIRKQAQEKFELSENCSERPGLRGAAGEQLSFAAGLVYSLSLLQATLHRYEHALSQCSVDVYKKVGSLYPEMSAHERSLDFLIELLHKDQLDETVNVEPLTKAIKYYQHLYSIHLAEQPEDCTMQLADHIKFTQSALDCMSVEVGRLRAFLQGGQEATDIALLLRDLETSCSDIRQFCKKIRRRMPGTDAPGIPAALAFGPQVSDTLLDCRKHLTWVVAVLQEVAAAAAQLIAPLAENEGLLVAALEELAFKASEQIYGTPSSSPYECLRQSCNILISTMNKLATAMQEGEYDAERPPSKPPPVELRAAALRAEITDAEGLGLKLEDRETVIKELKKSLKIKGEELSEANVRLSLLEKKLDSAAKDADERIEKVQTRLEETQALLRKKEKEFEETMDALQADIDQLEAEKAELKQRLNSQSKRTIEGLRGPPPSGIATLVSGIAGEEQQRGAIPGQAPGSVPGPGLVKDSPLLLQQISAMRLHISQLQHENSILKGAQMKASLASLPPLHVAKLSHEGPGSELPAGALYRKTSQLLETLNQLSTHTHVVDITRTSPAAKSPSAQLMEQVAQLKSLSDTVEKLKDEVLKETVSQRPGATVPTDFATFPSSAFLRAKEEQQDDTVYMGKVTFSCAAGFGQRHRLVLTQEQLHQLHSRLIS
UniProt P68104: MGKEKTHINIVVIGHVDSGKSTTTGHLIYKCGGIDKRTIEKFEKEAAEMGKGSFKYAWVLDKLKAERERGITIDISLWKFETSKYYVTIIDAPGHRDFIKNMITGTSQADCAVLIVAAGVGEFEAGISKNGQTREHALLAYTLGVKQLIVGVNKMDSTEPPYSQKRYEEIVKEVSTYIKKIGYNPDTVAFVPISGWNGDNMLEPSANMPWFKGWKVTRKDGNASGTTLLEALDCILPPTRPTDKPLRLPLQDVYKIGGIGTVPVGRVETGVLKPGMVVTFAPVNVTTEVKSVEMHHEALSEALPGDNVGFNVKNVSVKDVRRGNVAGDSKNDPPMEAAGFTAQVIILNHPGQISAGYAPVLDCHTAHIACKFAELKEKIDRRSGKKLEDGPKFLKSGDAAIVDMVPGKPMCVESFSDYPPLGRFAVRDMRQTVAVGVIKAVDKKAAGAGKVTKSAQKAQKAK

[2] = target: T2, Myc-YTHDF2-Δ101-200 (human) (UniProt Q9Y5A9); test: as above
T2 sequence: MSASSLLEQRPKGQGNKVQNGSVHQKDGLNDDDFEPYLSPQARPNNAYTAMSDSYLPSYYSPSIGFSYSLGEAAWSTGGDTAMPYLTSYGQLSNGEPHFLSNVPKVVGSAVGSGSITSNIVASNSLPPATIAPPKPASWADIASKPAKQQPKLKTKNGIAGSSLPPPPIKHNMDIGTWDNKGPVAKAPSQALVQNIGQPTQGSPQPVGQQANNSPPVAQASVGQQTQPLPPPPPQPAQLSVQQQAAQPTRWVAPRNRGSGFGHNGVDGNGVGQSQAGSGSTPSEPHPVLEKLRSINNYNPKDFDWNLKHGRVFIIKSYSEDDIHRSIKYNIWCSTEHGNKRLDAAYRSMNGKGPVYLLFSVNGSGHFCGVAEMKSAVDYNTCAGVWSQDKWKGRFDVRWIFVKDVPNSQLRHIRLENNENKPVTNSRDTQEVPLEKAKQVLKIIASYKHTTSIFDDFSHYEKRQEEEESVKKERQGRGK

[3] = target: T3, YTHDF1, endogenous (human (endogenous in HEK293T)) (UniProt Q9BYJ9); test: co-IP; IP with an antibody against endogenous YTHDF1, YTHDF2 or YTHDF3 from HEK293T extracts in NET-2 buffer (50 mM Tris-HCl pH 7.4, 150 mM NaCl, 0.05% NP-40), 3 h at 4 °C, western blot; cells treated with MG132 12 h (Fig. 2f), or with DMSO or MG132, with or without UPF1 siRNA (Fig. 3a)
T3 sequence: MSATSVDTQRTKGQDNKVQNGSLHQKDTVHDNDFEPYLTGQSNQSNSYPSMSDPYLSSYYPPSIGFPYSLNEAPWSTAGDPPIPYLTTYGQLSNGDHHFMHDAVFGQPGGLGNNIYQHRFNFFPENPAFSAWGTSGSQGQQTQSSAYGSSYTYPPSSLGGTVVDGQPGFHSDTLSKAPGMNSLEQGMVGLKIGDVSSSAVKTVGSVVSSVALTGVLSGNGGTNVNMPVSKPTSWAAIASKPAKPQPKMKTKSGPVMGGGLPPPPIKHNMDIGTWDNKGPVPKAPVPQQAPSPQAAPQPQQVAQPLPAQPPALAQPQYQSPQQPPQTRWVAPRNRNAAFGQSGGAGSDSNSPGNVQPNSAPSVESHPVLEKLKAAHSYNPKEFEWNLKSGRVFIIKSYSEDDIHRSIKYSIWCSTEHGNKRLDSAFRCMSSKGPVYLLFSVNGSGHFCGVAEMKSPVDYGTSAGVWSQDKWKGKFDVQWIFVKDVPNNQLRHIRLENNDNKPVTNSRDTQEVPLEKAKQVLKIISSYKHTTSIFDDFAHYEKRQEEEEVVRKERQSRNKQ

[4] = target: T4, YTHDF3, endogenous (human (endogenous in HEK293T)) (UniProt Q7Z739); test: as above
T4 sequence: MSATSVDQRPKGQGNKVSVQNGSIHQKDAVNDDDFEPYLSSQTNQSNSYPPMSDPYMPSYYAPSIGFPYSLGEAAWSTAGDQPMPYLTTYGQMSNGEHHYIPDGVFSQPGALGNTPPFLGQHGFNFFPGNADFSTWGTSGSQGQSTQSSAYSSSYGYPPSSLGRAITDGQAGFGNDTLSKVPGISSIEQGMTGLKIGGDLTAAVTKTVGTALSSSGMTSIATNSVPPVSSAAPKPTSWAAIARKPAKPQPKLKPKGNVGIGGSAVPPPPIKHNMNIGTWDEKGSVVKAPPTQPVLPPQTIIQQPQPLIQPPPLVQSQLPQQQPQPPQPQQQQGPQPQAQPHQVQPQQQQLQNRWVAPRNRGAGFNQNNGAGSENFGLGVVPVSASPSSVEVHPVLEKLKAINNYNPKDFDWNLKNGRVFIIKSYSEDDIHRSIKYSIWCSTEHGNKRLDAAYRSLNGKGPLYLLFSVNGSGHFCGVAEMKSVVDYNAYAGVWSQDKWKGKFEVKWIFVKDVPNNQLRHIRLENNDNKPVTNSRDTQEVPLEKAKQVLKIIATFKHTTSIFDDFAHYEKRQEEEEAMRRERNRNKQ

Measured: binding

dynactin 1 (DCTN1), endogenous (from UniProt Q14203 1-1278)
no binding: all assays above

eukaryotic translation elongation factor 1 alpha 1 (eEF1A1), endogenous (from UniProt P68104 1-462)
no binding: all assays above

B1: upstream frameshift 1 (UPF1), endogenous (protein, UniProt Q92900 1-1129)
chain: MSVEAYGPSSQTLTFLDTEEAELLGADTQGSEFEFTDFTLPSQTQTPPGGPGGPGGGGAGGPGGAGAGAAAGQLDAQVGPEGILQNGAVDDSVAKTSQLLAELNFEEDEEDTYYTKDLPIHACSYCGIHDPACVVYCNTSKKWFCNGRGNTSGSHIVNHLVRAKCKEVTLHKDGPLGETVLECYNCGCRNVFLLGFIPAKADSVVVLLCRQPCASQSSLKDINWDSSQWQPLIQDRCFLSWLVKIPSEQEQLRARQITAQQINKLEELWKENPSATLEDLEKPGVDEEPQHVLLRYEDAYQYQNIFGPLVKLEADYDKKLKESQTQDNITVRWDLGLNKKRIAYFTLPKTDSGNEDLVIIWLRDMRLMQGDEICLRYKGDLAPLWKGIGHVIKVPDNYGDEIAIELRSSVGAPVEVTHNFQVDFVWKSTSFDRMQSALKTFAVDETSVSGYIYHKLLGHEVEDVIIKCQLPKRFTAQGLPDLNHSQVYAVKTVLQRPLSLIQGPPGTGKTVTSATIVYHLARQGNGPVLVCAPSNIAVDQLTEKIHQTGLKVVRLCAKSREAIDSPVSFLALHNQIRNMDSMPELQKLQQLKDETGELSSADEKRYRALKRTAERELLMNADVICCTCVGAGDPRLAKMQFRSILIDESTQATEPECMVPVVLGAKQLILVGDHCQLGPVVMCKKAAKAGLSQSLFERLVVLGIRPIRLQVQYRMHPALSAFPSNIFYEGSLQNGVTAADRVKKGFDFQWPQPDKPMFFYVTQGQEEIASSGTSYLNRTEAANVEKITTKLLKAGAKPDQIGIITPYEGQRSYLVQYMQFSGSLHTKLYQEVEIASVDAFQGREKDFIILSCVRANEHQGIGFLNDPRRLNVALTRARYGVIIVGNPKALSKQPLWNHLLNYYKEQKVLVEGPLNNLRESLMQFSKPRKLVNTINPGARFMTTAMYDAREAIIPGSVYDRSSQGRPSSMYFQTHDQIGMISAGPSHVAAMNIPIPFNLVMPPMPPPGYFGQANGPAAGRGTPKGKTGRGGRQKNRFGLPGPSQTNLPNSQASQDVASQPFSQGALTQGYISMSQPSQMSQPGLSQPELSQDSYLGDEFKSQIDVALSQDSTYQGERAYQHGGVTGLSQY
no binding: all assays above

Source: publication PMC10558514
